Record: PubChem BioAssay AID652259 (Drosophila RNAi Screening Center, 2013)

Aim: 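Genome-wide hunt for genes that control Wingless pathway activity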 (primary screen)
Cells: Drosophila clone 8 imaginal disc epithelial cells
Knock-down reagent: long dsRNA against Drosophila genes
Treatment: pathway stimulated by co-transfected Wingless expression plasmid
Read-out: 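Firefly luciferase from a tcf-site Wingless reporter, measured alongside co-transfected Renilla luciferase that tracks transfection; pathway stimulated by a Wingless plasmid; the firefly-to-Renilla ratio is not deposited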
Reading the numbers: firefly reporter light: higher = more Wg reporter light, before normalisation; Renilla control light: higher = more transfected or surviving cells
Active means: 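a knock-down is a candidate when at least two out of four statistical tests show it departing from its plate mean; one test alone signals a weak candidate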
Calls: active = candidate regulator (raises or lowers reporter); inactive = not a candidate
The deposit covers about 22,000 reagents; this is a random part of those that have a named target and a result. Over the whole deposit, 233 (1.1%) are marked active. 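Light values are raw, unnormalised plate reads; the ratio scores behind the reporter calls were not deposited.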 A number with no mark means an inactive call. Not stated in the record: the amount of reagent, the time to read-out, the dose of the treatment.

LSm3 (Like Sm 3) [SID104195712] | firefly reporter light, replicate 1 = 31361; Renilla control light, replicate 1 = 19092
mats (mob as tumor suppressor) [SID104193354] | firefly reporter light, replicate 1 = 2963; Renilla control light, replicate 1 = 1585
mats (mob as tumor suppressor) [SID104194494] | firefly reporter light, replicate 1 = 3168; firefly reporter light, replicate 2 = 5296; Renilla control light, replicate 1 = 1421; Renilla control light, replicate 2 = 2253
Gr63a (Gustatory receptor 63a) [SID104188230] | firefly reporter light, replicate 1 = 3803; Renilla control light, replicate 1 = 2229
vvl (ventral veins lacking) [SID104191201] | firefly reporter light, replicate 1 = 1770; firefly reporter light, replicate 2 = 6282; Renilla control light, replicate 1 = 1168; Renilla control light, replicate 2 = 2381
CG18518 [SID104181301] | firefly reporter light, replicate 1 = 16813; Renilla control light, replicate 1 = 8336
lncRNA:CR41443 (long non-coding RNA:CR41443) [SID104187525] | firefly reporter light, replicate 1 = 20572; Renilla control light, replicate 1 = 14348
Cbp20 (cap binding protein 20) [SID104196393] | firefly reporter light, replicate 1 = 14390; Renilla control light, replicate 1 = 2812
GluRIID (Glutamate receptor IID) [SID104196515] | firefly reporter light, replicate 1 = 20569; Renilla control light, replicate 1 = 4605
Fum2 (Fumarase 2) [SID104198137] | firefly reporter light, replicate 1 = 17360; Renilla control light, replicate 1 = 10461
asRNA:CR31845 (antisense RNA:CR31845) [SID104201781] | firefly reporter light, replicate 1 = 6.23e5; firefly reporter light, replicate 2 = 6.78e5; Renilla control light, replicate 1 = 1.37e5; Renilla control light, replicate 2 = 1.43e5
Whamy (WHAMM and JMY related) [SID104194366] | firefly reporter light, replicate 1 = 19017; Renilla control light, replicate 1 = 3869
CG6420 [SID104195827] | firefly reporter light, replicate 1 = 5460; Renilla control light, replicate 1 = 2550
CG12116 [SID104197604] | firefly reporter light, replicate 1 = 18074; Renilla control light, replicate 1 = 10000
CG12219 [SID104197621] | firefly reporter light, replicate 1 = 8198; Renilla control light, replicate 1 = 6057
CG9776 [SID104191919] | firefly reporter light, replicate 1 = 10616; Renilla control light, replicate 1 = 4209
CG34005 [SID104185492] | firefly reporter light, replicate 1 = 17979; Renilla control light, replicate 1 = 7481
CG6479 [SID104190439] | firefly reporter light, replicate 1 = 3012; Renilla control light, replicate 1 = 1011
CG31178 [SID104194382] | firefly reporter light, replicate 1 = 38325; Renilla control light, replicate 1 = 8100
Nepl8 (Neprilysin-like 8) [SID104182551] | firefly reporter light, replicate 1 = 3940; firefly reporter light, replicate 2 = 5516; Renilla control light, replicate 1 = 1447; Renilla control light, replicate 2 = 2539
spn-D (spindle D) [SID104202047] | firefly reporter light, replicate 1 = 4.75e5; firefly reporter light, replicate 2 = 6.01e5; Renilla control light, replicate 1 = 1.88e5; Renilla control light, replicate 2 = 2.09e5
CG2063 [SID104186603] | firefly reporter light, replicate 1 = 3520; firefly reporter light, replicate 2 = 7170; Renilla control light, replicate 1 = 466; Renilla control light, replicate 2 = 1048
mRpS17 (mitochondrial ribosomal protein S17) [SID104184255] | firefly reporter light, replicate 1 = 2608; firefly reporter light, replicate 2 = 4490; Renilla control light, replicate 1 = 496; Renilla control light, replicate 2 = 2332
CG7236 [SID104182829] | firefly reporter light, replicate 1 = 1633; firefly reporter light, replicate 2 = 4345; Renilla control light, replicate 1 = 786; Renilla control light, replicate 2 = 1809
CG8944 [SID104199920] | firefly reporter light, replicate 1 = 4224; firefly reporter light, replicate 2 = 7403; Renilla control light, replicate 1 = 1664; Renilla control light, replicate 2 = 3330
CG8944 [SID104201121] | firefly reporter light, replicate 1 = 5.95e5; firefly reporter light, replicate 2 = 6.25e5; Renilla control light, replicate 1 = 3.00e5; Renilla control light, replicate 2 = 2.28e5

Entries above whose target name begins with G or g (2):
Gr63a (Gustatory receptor 63a) [SID104188230] | firefly reporter light, replicate 1 = 3803; Renilla control light, replicate 1 = 2229
GluRIID (Glutamate receptor IID) [SID104196515] | firefly reporter light, replicate 1 = 20569; Renilla control light, replicate 1 = 4605
